In PubChem BioAssay AID2685 (National Center for Advancing Translational Sciences (NCATS), 2010):
The other results are listed elsewhere or left out. These are further read-outs of the screen, such as a control signal, another cell line or another target. No call is given for them. Most of these compounds were active or inconclusive in the main read-out, so they are no random draw. Words in brackets tell the shape of the fitted curve; partial curves, single points and poor fits give uncertain potencies.

Assay: qHTS Assay for Lipid Storage Modulators in Drosophila S3 Cells;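 on cell number change: cells counted by Cell Tracker Red CMTPX staining in the red channel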
Conditions: BODIPY lipid droplet fluorescence, 18-24 h; for cell number change: measured here: cell count max response, cells fed with added oleic acid
In short: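 Drosophila S3 cells loaded with oleic acid (400 uM, as added) and compounds at several concentrations; lipid droplets imaged by 488-nm laser-scanning cytometry, 500–530 nm intensity and object ratio to cell channel. Percent activity normalized to 20 uM Triacsin C.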

[1] = measured here: lipid fluorescence (Fed channel) AC50, cells fed with added oleic acid
[2] = measured here: cell number channel AC50, cells fed with added oleic acid

| SMILES | cell number change | AC50 [1] | AC50 [2] |
| --- | --- | --- | --- |
| COc1cc2c3nnc(-c4ccc(F)cc4)c-3cn(Cc3ccccc3)c2cc1OC | 1.35% | 29.1 µM [falling, single point] |  |
| Cc1cc(/C=N\NC(=O)COc2cccc3cccnc23)c(C)n1-c1ccccc1 | 9.97% | 6.51 µM [rising, single point] |  |
| CCOc1cc2c(cc1C(C)(C)C)NC(=O)CS2 | -40.9% | 2.91 µM [rising, partial curve] | 29.1 µM [falling, single point] |
| Cc1cc(OCC(=O)NCCc2c[nH]c3ccccc23)c2c(C)c(C)c(=O)oc2c1 | -35% | 5.17 µM [falling, full curve] | 23.1 µM [falling, single point] |
| Cc1ccc2nc(NCc3ccccc3)c(C=NCc3cccnc3)c(=O)n2c1 | 5.8% | 2.06 µM [rising, single point] |  |
| Cc1cccc(NC(=O)CC2CCC2)c1 | -50% |  | 29.1 µM [falling, single point] |
| CCCNCC1C(Oc2ccc(Cl)cc2)C(=O)N1c1ccccc1C (configuration not stated) | -9.29% | 6.51 µM [falling, single point] | 0.92 µM [falling, full curve] |
| O=C(N/N=C/c1ccccc1O)c1cccc2ccccc12 | -39.6% |  | 29.1 µM [falling, single point] |
| COc1ccccc1C(=O)NCCNc1nc2cc(C)cc(C)c2cc1C#N | -0.676% | 29.1 µM [falling, single point] |  |
| Cc1cccc(NC(=O)CSc2nnc(CNC(=O)c3ccc(S(=O)(=O)N(C)C)cc3)n2-c2ccccc2)c1 |  | 2.91 µM [rising, full curve] |  |
| O=c1cc(CN2CCOCC2)c2c(ccc3ccccc32)o1 |  | 0.651 µM [rising, full curve, poor fit] | 5.8 µM [rising, single point] |
| O=C(COC(=O)C1CCN(S(=O)(=O)c2ccccc2)CC1)NCCc1ccccc1 | -46.8% | 16.4 µM [falling, single point] | 18.4 µM [falling, single point] |
| COc1ccc(S(=O)(=O)NCC2CCCO2)cc1NC(=O)c1ccccc1F (configuration not stated) |  | 18.4 µM [falling, partial curve] |  |
| COc1cccc(CN(C)C(=O)c2csc3c2CCCC3)c1OC | -0.677% |  |  |
| COc1ccc(CN(C)CC(O)COC(c2ccccc2)c2ccccc2)c(OC)c1OC (configuration not stated) | 5.13% |  |  |
| CCNC(=O)CSc1nnc(-c2ccccc2)n1-c1ccc(OCC)cc1 | 4.34% |  | 0.0731 µM [rising, full curve, poor fit] |
| COCCn1c(SC(C)C(=O)Nc2ccc(Cl)cn2)nnc1-c1ccncc1 (configuration not stated) | 24.7% |  |  |
| O=S(=O)(c1ccc2ccccc2c1)N1CCc2ccccc21 | 11.9% | 29.1 µM [rising, single point] |  |
| Cc1ccc2nc(-c3ccncc3)c(Nc3ccccc3)n2c1 | 0.122% | 2.31 µM [rising, single point] |  |

Entries of single compounds from above.
COc1cccc(CN(C)C(=O)c2csc3c2CCCC3)c1OC is listed with cell number change: -0.677%
COc1ccc(CN(C)CC(O)COC(c2ccccc2)c2ccccc2)c(OC)c1OC (configuration not stated) is listed with cell number change: 5.13%

Going on with the list:

| SMILES | cell number change | AC50 [1] | AC50 [2] |
| --- | --- | --- | --- |
| Cc1nnsc1S(=O)(=O)c1ccccc1 | 16.9% | 8.2 µM [rising, partial curve] |  |
| Cc1ccc(NC(=O)CO/N=C/c2ccc(N(C)C)cc2)cc1 | 42.9% | 13 µM [falling, partial curve] | 7.31 µM [rising, partial curve] |
| CC(=NCCN1CCOCC1)C1=C(O)c2ccccc2C1=O | 3.63% |  |  |
| CCCNC1CCS(=O)(=O)C1 (configuration not stated) | -3.91% |  |  |
| COc1ccc(Cl)cc1Nc1nc(C)nc2c1nnn2Cc1ccccc1 | 8.29% | 0.517 µM [rising, full curve, poor fit] |  |
| COc1ccc(NC(=O)COC(=O)c2ccc(OCc3ccccc3Cl)c(OC)c2)c(OC)c1 | 12.3% | 0.58 µM [rising, full curve] |  |
| COc1ccc2c3c(cccc13)N(C)N=C2C | -0.41% | 0.651 µM [rising, single point] |  |
| CC(C)OP(=O)(OC(C)C)C(NC(=O)c1cccc([N+](=O)[O-])c1)C(N)=O (configuration not stated) | 16.3% | 32.6 µM [falling, single point] |  |
| CCSc1nnc(NS(=O)(=O)c2ccc(C)cc2)s1 | 2.27% | 0.651 µM [rising, partial curve, poor fit] |  |
| O=C(Nc1ccc(Cl)c(-c2nc3ccccc3[nH]2)c1)c1cccnc1 |  | 4.11 µM [rising, partial curve, poor fit] | 0.082 µM [rising, full curve] |
| CCOC(=O)Nc1ccccc1C(=O)Nc1cc(C)cc(C)c1 | -17.2% | 16.4 µM [falling, single point] |  |
| O=C(N/N=C/c1ccco1)c1ccccn1 | -4.6% | 6.51 µM [rising, single point] |  |
| Cc1cccc(N=Nc2c(C)[nH]n(-c3ccccc3)c2=O)c1 | -39.8% | 8.2 µM [falling, partial curve] | 25.9 µM [falling, partial curve, poor fit] |
| COc1ccc(OC)c(C2CC(=O)NC(SC)=C2C#N)c1 (configuration not stated) | 30.5% | 2.31 µM [rising, partial curve, poor fit] | 2.59 µM [rising, single point] |
| CCOc1ccc(N(CC(=O)N2CCOCC2)S(=O)(=O)c2ccc(F)cc2)cc1 | -31.7% | 6.51 µM [rising, single point] | 18.4 µM [falling, partial curve, poor fit] |
| COc1cc2[nH]c(=S)n(NC(=O)c3ccccc3)c(=O)c2cc1OC | 33.2% |  | 3.66 µM [rising, partial curve] |
| O=C(OCC(=O)N1CCCCC1)c1cc2ccccc2cc1O | -3.65% |  |  |
| CCn1cc(C(=O)O)c(=O)c2cc(F)c(N3CCNCC3)cc21 | -48.5% | 3.26 µM [falling, partial curve, poor fit] | 18.4 µM [falling, single point] |
| O=P(COCCOCP(=O)(c1ccccc1)c1ccccc1)(c1ccccc1)c1ccccc1 | 22.2% | 20.6 µM [rising, partial curve] |  |
